In the supplement of paper PMC6411743 one finds NP40-soluble protein abundance data, which are given here for 43 targets.

Protein sequences, listed by entry. Tags and fused reporters are not part of them. Lines headed by an entry give the natural chain unless they say otherwise; changes in a name come on top.
UniProt P52657, whole entry: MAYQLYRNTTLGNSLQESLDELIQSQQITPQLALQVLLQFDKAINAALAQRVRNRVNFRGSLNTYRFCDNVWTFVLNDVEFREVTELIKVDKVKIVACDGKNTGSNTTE
UniProt P47897: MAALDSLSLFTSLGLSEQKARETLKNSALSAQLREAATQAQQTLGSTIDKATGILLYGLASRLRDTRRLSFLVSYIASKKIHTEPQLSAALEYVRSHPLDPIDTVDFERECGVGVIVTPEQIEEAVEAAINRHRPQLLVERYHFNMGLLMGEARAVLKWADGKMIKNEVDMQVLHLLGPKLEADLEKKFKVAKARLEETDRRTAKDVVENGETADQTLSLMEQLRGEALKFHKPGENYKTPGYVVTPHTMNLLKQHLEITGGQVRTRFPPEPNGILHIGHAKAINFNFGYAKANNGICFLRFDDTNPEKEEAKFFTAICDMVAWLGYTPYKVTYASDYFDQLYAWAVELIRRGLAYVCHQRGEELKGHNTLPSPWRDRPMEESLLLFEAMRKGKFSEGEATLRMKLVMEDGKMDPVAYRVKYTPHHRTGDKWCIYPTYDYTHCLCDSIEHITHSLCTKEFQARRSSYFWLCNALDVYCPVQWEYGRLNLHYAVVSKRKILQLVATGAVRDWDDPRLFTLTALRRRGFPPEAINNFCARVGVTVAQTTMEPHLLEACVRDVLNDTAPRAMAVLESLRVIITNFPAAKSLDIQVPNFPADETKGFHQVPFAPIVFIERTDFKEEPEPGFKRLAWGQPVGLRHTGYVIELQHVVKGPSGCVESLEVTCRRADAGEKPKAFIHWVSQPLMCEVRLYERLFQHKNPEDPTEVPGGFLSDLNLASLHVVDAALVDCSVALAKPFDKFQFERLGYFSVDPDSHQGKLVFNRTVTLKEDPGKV
UniProt P48735: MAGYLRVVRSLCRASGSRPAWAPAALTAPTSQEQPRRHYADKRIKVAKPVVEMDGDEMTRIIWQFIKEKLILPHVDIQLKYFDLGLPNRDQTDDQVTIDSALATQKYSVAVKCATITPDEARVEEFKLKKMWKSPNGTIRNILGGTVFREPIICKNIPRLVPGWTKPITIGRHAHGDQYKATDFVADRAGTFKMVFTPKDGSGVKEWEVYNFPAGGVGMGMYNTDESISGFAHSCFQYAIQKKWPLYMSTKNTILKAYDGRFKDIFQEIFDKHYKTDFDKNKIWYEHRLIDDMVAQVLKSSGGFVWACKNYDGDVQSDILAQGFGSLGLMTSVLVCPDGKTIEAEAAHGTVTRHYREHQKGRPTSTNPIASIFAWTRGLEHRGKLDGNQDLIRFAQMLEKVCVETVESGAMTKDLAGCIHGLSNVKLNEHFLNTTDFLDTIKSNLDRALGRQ
UniProt P42166: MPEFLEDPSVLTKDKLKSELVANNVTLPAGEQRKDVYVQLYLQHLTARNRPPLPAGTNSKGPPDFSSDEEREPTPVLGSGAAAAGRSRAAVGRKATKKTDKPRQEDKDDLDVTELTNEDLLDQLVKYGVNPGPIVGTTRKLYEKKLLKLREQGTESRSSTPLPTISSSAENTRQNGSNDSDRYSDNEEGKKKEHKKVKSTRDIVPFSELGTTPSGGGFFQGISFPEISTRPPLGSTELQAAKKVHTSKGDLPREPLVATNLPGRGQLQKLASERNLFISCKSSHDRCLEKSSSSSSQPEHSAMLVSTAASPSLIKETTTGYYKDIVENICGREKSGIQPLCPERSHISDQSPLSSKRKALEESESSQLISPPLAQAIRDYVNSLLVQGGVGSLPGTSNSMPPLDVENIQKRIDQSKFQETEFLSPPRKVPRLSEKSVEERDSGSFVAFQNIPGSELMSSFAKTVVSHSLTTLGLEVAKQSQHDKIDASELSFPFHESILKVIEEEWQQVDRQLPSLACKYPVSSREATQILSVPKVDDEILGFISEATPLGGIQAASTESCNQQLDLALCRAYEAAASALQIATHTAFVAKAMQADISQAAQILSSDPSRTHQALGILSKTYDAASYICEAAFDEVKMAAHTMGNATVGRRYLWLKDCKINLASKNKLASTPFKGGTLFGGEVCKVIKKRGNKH
UniProt P42167: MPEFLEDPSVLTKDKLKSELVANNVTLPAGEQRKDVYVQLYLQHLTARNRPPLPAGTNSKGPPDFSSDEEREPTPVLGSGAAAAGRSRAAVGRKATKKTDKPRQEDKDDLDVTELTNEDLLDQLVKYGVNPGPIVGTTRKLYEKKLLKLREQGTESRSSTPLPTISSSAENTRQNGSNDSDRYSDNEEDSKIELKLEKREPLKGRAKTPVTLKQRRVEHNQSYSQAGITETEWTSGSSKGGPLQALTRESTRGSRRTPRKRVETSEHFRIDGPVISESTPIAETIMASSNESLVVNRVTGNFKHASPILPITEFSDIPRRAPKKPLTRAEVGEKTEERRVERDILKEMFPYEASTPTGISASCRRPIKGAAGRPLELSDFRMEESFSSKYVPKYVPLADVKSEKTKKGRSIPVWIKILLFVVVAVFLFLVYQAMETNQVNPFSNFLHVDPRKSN
UniProt P43250, whole entry, looked up: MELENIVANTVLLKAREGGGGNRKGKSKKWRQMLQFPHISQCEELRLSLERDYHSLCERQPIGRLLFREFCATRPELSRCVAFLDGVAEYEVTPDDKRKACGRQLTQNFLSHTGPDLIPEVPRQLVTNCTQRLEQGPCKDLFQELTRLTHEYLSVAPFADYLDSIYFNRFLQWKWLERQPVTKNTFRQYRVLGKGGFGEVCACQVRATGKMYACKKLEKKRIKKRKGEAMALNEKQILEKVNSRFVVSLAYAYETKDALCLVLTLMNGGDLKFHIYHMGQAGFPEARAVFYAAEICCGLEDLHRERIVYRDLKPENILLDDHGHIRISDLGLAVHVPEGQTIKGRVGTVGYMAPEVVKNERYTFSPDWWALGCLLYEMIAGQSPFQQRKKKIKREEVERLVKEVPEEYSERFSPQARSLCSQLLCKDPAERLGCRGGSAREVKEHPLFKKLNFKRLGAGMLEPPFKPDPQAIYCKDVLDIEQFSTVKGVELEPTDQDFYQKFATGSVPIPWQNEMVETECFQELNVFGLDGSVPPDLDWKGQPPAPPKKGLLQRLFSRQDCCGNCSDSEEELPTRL
UniProt P41162: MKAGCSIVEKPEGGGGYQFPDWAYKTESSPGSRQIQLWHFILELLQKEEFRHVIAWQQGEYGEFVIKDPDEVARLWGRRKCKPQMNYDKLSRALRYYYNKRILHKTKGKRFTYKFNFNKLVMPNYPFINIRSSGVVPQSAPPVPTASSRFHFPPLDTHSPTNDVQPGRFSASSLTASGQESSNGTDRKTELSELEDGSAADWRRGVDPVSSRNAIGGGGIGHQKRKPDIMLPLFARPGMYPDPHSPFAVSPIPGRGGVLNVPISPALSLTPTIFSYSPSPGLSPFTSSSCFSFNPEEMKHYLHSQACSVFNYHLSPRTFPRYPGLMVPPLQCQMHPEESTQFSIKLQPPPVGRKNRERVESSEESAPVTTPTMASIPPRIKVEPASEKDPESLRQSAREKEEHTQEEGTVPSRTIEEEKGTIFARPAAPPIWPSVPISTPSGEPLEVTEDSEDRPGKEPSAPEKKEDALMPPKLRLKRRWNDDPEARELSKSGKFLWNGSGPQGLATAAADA
UniProt P50454: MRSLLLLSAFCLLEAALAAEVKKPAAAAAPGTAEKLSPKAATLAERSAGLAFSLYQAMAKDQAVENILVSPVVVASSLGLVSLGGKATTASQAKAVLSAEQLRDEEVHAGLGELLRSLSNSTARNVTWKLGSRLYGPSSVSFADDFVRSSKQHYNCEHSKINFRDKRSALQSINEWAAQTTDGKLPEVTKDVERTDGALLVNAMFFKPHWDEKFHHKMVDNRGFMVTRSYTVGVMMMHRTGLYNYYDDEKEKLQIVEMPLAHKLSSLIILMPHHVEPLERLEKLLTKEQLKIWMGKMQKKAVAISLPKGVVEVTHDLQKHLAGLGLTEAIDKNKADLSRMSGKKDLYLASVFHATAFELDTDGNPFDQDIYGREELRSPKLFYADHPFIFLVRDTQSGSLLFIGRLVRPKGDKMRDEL
UniProt P51570: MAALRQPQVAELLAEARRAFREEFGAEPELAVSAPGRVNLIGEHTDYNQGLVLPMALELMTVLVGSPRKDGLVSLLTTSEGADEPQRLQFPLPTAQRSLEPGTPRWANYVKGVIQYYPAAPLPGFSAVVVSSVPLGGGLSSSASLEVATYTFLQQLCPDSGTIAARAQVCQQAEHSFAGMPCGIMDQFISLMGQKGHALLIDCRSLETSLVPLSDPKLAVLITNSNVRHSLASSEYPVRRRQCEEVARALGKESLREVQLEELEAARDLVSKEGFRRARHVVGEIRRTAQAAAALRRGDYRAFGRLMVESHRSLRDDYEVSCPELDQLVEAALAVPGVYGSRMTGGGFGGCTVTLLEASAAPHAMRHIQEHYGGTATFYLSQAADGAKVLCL
UniProt P46734: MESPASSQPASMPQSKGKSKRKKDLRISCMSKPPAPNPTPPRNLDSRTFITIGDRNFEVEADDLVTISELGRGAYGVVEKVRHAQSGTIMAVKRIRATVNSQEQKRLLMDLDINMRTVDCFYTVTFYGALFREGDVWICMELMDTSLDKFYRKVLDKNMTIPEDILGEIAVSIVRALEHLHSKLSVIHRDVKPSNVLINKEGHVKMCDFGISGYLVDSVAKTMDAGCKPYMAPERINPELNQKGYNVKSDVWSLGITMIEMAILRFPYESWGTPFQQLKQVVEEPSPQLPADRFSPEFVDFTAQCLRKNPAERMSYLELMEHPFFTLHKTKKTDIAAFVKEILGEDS
UniProt P52630: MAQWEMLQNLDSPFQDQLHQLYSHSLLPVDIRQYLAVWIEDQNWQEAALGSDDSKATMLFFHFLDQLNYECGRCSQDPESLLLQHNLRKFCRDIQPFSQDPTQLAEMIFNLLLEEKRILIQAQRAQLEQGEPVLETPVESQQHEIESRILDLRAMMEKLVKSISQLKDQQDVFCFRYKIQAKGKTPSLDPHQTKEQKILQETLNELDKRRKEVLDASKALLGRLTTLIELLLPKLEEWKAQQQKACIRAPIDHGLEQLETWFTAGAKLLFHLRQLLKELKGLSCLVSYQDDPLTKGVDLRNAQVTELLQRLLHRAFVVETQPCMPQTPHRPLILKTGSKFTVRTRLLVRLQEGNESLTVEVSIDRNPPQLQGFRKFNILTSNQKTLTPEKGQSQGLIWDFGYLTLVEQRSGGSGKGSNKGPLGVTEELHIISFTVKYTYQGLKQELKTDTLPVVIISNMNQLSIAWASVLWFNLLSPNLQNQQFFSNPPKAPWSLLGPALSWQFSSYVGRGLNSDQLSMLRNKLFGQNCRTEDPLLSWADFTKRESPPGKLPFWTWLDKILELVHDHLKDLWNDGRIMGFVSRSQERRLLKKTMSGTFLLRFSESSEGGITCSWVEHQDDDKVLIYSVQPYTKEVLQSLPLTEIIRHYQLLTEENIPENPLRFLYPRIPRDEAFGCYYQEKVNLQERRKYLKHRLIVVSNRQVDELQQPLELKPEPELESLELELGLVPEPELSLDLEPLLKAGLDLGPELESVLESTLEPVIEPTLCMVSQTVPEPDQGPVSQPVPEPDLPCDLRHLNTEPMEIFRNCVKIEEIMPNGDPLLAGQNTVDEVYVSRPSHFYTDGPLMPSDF
UniProt P41223: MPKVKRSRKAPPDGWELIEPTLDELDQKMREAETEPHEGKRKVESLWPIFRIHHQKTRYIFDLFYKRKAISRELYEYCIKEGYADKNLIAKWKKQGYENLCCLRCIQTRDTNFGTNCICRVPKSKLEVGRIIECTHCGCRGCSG
UniProt P52565: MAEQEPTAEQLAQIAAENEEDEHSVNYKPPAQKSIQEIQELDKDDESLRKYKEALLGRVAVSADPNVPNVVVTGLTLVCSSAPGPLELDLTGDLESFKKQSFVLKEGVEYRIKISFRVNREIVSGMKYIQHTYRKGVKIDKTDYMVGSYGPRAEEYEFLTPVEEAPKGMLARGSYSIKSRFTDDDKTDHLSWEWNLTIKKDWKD
UniProt P51572: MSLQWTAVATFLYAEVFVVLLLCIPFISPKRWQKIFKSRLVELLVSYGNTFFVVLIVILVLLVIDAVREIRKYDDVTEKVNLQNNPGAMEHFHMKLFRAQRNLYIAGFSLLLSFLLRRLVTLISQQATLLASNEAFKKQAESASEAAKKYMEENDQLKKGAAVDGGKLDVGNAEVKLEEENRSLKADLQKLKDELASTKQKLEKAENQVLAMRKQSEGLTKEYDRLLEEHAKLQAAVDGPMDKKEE
UniProt P49247: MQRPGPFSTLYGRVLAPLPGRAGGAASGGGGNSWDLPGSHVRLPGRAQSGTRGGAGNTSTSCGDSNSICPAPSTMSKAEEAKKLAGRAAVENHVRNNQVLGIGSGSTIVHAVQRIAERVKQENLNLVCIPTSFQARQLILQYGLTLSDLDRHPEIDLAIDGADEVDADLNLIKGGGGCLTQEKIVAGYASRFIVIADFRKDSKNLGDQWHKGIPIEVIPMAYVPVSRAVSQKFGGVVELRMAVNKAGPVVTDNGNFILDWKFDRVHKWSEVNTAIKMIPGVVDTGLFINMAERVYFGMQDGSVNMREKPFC

Compound in this test: Nc1ncnc2c1ncn2[C@@H]1O[C@H](COP(=O)(O)OP(=O)(O)OP(=O)(O)O)[C@@H](O)[C@H]1O [adenosine triphosphate]
The experiment in a line: NP40-soluble protein abundance relative to vehicle (solubility fold change) (ratio); higher = more soluble protein in presence of ATP. The gist of the method: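 Data come from three independent experiments in which Dounce-homogenised Jurkat crude lysate was treated at eight concentrations from 0.1 to 10 mM. Treatment ran 10 min at room temperature and then 3 min at 37 °C, after which 0.8% NP40 and benzonase were added for 60 min at 4 °C before ultracentrifugation. The supernatant underwent TMT labelling and LC-MS/MS, and vsn-normalised intensities were expressed as fold change against the detergent-processed vehicle in each replicate.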

± gives the standard deviation of the averaged measurements. Only a part is listed here, and it is no random draw. Small differences around the control level are noise.

As to UniProt P43487 and related entries, the NP40-soluble protein abundance was determined as 0.892 ± 0.11 (concentration: 0.1mM) and 0.877 ± 0.14 (concentration: 0.5mM).
Taken in the same sequence, the figures for CASP2 (UniProt P42575) were 1.04 ± 0.11 and 1.07 ± 0.14.
With UniProt P45984 and related entries, the NP40-soluble protein abundance was 1.05 ± 0.11 (concentration: 0.1mM) and 1.03 ± 0.037 (concentration: 0.5mM).
For UniProt P50570-4|P50570, the NP40-soluble protein abundance is 1.04 ± 0.079 (concentration: 0.1mM) and 1.06 ± 0.091 (concentration: 0.5mM).
On the same counts, the results for GTF2A2 (UniProt P52657) are 0.819 ± 0.14 and 0.822 ± 0.21.
Taken in the same sequence, the figures for UniProt P46736-2|P46736 were 1.06 ± 0.036 and 1.06 ± 0.073.
Taken in the same sequence, the figures for QARS (UniProt P47897) were 1.02 ± 0.035 and 1.04 ± 0.043.
Consider LIG4 (UniProt P49917), for which the NP40-soluble protein abundance (concentration: 0.1mM) amounted to 1.05 ± 0.079 and the NP40-soluble protein abundance (concentration: 0.5mM) was 1.17 ± 0.14.
On the same counts, the results for ACADSB (UniProt P45954) are 1.04 ± 0.081 and 1.04 ± 0.045.
UniProt P49116 and related entries: the NP40-soluble protein abundance is, setting by setting: (concentration: 0.1mM) 1.03 ± 0.046; (concentration: 0.5mM) 1.04 ± 0.04.
Turning to NEK4 (UniProt P51957), the NP40-soluble protein abundance is, setting by setting: (concentration: 0.1mM) 1.02 ± 0.12; (concentration: 0.5mM) 1.09 ± 0.1.
On the same counts, the results for IDH2 (UniProt P48735) are 0.954 ± 0.15 and 1.038 ± 0.0008.
For the target RPL29 (UniProt P47914), the NP40-soluble protein abundance is 0.898 ± 0.15 (concentration: 0.1mM) and 0.911 ± 0.16 (concentration: 0.5mM).
On the same counts, the results for HNRNPF (UniProt P52597) are 1.04 ± 0.043 and 1.05 ± 0.07.
UBA7 (UniProt P41226): the NP40-soluble protein abundance (concentration: 0.1mM) was 1.06 ± 0.057 and the NP40-soluble protein abundance (concentration: 0.5mM) turned out to be 0.974 ± 0.082.
Taken in the same sequence, the figures for “P42166 and related entries (UniProt H0YJH7+P42167+P42166)” were 1.01 ± 0.031 and 1.08 ± 0.038.
Regarding UniProt P49754 and related entries, the NP40-soluble protein abundance was found to be 1.05 ± 0.14 (concentration: 0.1mM) and 0.985 ± 0.089 (concentration: 0.5mM).
Turning to HDGF (UniProt P51858), the NP40-soluble protein abundance (concentration: 0.1mM) stood at 0.952 ± 0.013 and the NP40-soluble protein abundance (concentration: 0.5mM) amounted to 0.979 ± 0.024.
On the same counts, the results for UniProt P43250-2 are 1.12 ± 0.045 and 1.17 ± 0.031.
On the same counts, the results for RPL28 (UniProt P46779) are 0.913 ± 0.13 and 0.873 ± 0.17.
Taken in the same sequence, the figures for CDKN2C (UniProt P42773) were 0.849 ± 0.14 and 0.807 ± 0.21.
As for UniProt P40429 and related entries, the NP40-soluble protein abundance (concentration: 0.1mM) was 0.954 ± 0.12 and the NP40-soluble protein abundance (concentration: 0.5mM) turned out to be 0.974 ± 0.063.
On the same counts, the results for ETV3 (UniProt P41162) are 0.896 ± 0.045 and 1.06 ± 0.039.
On the same counts, the results for RPL34 (UniProt P49207) are 0.868 ± 0.12 and 0.844 ± 0.12.
On the same counts, the results for KNTC1 (UniProt P50748) are 1.07 ± 0.069 and 1.02 ± 0.045.
With CCNH (UniProt P51946), the NP40-soluble protein abundance is, setting by setting: (concentration: 0.1mM) 1.02 ± 0.042; (concentration: 0.5mM) 1.04 ± 0.05.
For ATP6V1E1 (UniProt P36543), the NP40-soluble protein abundance (concentration: 0.1mM) turned out to be 0.946 ± 0.026 and the NP40-soluble protein abundance (concentration: 0.5mM) is 0.935 ± 0.02.
On to TMED10 (UniProt P49755), for which the NP40-soluble protein abundance reads like this: (concentration: 0.1mM) 1.08 ± 0.11; (concentration: 0.5mM) 1.08 ± 0.12.
Taken in the same sequence, the figures for RPL21 (UniProt P46778) were 0.919 ± 0.13 and 0.943 ± 0.1.
On the same counts, the results for SERPINH1 (UniProt P50454) are 1.01 ± 0.011 and 1.02 ± 0.014.
Taken in the same sequence, the figures for GALK1 (UniProt P51570) were 0.986 ± 0.026 and 0.994 ± 0.014.
Regarding SERPINB8 (UniProt P50452), the NP40-soluble protein abundance by setting is: (concentration: 0.1mM) 1.04 ± 0.092; (concentration: 0.5mM) 1.05 ± 0.07.
Taken in the same sequence, the figures for UniProt P46734 were 1.08 ± 0.036 and 1.13 ± 0.032.
Taken in the same sequence, the figures for RAB9A (UniProt P51151) were 1.05 ± 0.033 and 1.01 ± 0.091.
On the same counts, the results for UniProt P52630 and related entries are 1.06 ± 0.062 and 1.01 ± 0.056.
With UniProt P41223, the NP40-soluble protein abundance runs as follows: (concentration: 0.1mM) 1 ± 0.012; (concentration: 0.5mM) 1.03 ± 0.055.
Taken in the same sequence, the figures for UniProt P49768 and related entries were 0.916 ± 0.086 and 0.895 ± 0.049.
On to ARHGDIA (UniProt P52565), for which the NP40-soluble protein abundance is, setting by setting: (concentration: 0.1mM) 0.979 ± 0.055; (concentration: 0.5mM) 1.02 ± 0.042.
On the same counts, the results for UniProt P51572 and related entries are 0.876 ± 0.071 and 0.865 ± 0.06.
On the same counts, the results for RANBP2 (UniProt P49792) are 0.9868 ± 0.0095 and 1.02 ± 0.038.
Taken in the same sequence, the figures for UniProt P52739 and related entries were 1.08 ± 0.2 and 1.06 ± 0.062.
Consider RPIA (UniProt P49247), for which the NP40-soluble protein abundance was found to be 1.01 ± 0.043 (concentration: 0.1mM) and 1.01 ± 0.022 (concentration: 0.5mM).
As for PPT1 (UniProt P50897), the NP40-soluble protein abundance stood at 0.918 ± 0.033 (concentration: 0.1mM); 0.938 ± 0.03 (concentration: 0.5mM); 0.942 ± 0.054 (concentration: 1mM); 0.92 ± 0.019 (concentration: 2mM); 0.877 ± 0.034 (concentration: 4mM); 0.957 ± 0.035 (concentration: 6mM). Further, the NP40-soluble protein abundance is, setting by setting: (concentration: 8mM) 0.903 ± 0.016; (concentration: 10mM) 0.86 ± 0.039.
